Data as given in publication PMC3479092, “Tsetse Salivary Gland Proteins 1 and 2 Are High Affinity Nucleic Acid Binding Proteins with Residual Nuclease Activity”.
The exact form of at least one protein or probe is not confirmed. Protein sequences can lack the tags named with them.

Target: T1, Tsal1 (Glossina morsitans morsitans) (UniProt D3TS87)
T1 sequence (looked up, limits assumed): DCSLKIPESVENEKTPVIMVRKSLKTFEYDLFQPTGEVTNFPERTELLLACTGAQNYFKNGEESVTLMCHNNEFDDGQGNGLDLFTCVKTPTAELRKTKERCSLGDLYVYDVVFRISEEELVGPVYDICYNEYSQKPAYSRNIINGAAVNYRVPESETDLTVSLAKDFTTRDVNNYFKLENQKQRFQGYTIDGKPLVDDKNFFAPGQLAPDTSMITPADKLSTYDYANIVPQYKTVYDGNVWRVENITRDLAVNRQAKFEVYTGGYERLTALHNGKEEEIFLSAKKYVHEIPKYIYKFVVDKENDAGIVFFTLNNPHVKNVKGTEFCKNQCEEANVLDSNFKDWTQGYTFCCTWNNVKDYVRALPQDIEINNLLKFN
Assay: SPR
Settings: ka 3.2E+04, kd 2.0E-03; SPR (BIAcore), 50 mM sodium acetate pH 4.0, 150 mM NaCl, 3.5 mM EDTA, 0.005% Tween-20, 30 ul/min, Langmuir 1:1 fit; temperature not stated; recombinant protein; protein details: pelB leader (pET22b), His tag implied by Ni-NTA; single-stranded DNA

## CACTAGGTCTGATCAGGCAACGTTG [ssDNA 25nt A/T/G/C mixed]
  Kd: 64 nM
